The values below come from EP4549424A1, “NEW LITHIUM EXTRACTING AGENT AND LIQUID ORGANIC MIXTURE THEREOF, AND METHOD FOR EXTRACTING LITHIUM BY MEANS OF EXTRACTION” (Beijing Salt Lake Technology Development Company Limited, priority 2022, dated 2024).

Data set [1] in a line: Stripping of lithium-loaded organic mixture with sulfuric acid aqueous solution: lithium. The note with it: 0.6 M sulfuric acid aqueous solution; volume, time and loaded organic mixture per example.
Data set [2] in a line: pH of aqueous phase after extraction or stripping. The note with it: 0.6 M sulfuric acid aqueous solution; volume, time and loaded organic mixture per example.

For the compound `O=C(c1ccccc1)c1cc([N+](=O)[O-])c(OCc2ccccc2)cc1O` [Example 24, 4-benzyloxy-5-nitro-2-hydroxydibenzophenone], the “cLi, lithium-containing solution FC1 obtained from stripping” value in data set [1] was 1.752 g/L. For the same compound, in data set [2], the “pH, lithium-containing solution FC1 obtained from stripping” value is given as less than 1.
As to “4-octyloxy-2,5-dinitro-2-hydroxydibenzophenone [Example 20]”, the “cLi, lithium-containing solution FC1 obtained from stripping” value in data set [1] is on record as 0.449 g/L. Further, the “pH, lithium-containing solution FC1 obtained from stripping” value in data set [2] is given as less than 1.
